Measured values: the supplement of paper PMC12819154, “High-throughput peptide-centric local stability assay extends protein–ligand identification to membrane proteins, tissues and bacteria” (Nature Structural & Molecular Biology, 2025)
The list shows a part of the results. Most values lie at the level of the controls, where differences are scatter.

Amino acid sequences for entries named in this document (tags omitted). A change or cut given only in a name is not applied to a line headed by its entry.
UniProt Q6PGB8, whole entry: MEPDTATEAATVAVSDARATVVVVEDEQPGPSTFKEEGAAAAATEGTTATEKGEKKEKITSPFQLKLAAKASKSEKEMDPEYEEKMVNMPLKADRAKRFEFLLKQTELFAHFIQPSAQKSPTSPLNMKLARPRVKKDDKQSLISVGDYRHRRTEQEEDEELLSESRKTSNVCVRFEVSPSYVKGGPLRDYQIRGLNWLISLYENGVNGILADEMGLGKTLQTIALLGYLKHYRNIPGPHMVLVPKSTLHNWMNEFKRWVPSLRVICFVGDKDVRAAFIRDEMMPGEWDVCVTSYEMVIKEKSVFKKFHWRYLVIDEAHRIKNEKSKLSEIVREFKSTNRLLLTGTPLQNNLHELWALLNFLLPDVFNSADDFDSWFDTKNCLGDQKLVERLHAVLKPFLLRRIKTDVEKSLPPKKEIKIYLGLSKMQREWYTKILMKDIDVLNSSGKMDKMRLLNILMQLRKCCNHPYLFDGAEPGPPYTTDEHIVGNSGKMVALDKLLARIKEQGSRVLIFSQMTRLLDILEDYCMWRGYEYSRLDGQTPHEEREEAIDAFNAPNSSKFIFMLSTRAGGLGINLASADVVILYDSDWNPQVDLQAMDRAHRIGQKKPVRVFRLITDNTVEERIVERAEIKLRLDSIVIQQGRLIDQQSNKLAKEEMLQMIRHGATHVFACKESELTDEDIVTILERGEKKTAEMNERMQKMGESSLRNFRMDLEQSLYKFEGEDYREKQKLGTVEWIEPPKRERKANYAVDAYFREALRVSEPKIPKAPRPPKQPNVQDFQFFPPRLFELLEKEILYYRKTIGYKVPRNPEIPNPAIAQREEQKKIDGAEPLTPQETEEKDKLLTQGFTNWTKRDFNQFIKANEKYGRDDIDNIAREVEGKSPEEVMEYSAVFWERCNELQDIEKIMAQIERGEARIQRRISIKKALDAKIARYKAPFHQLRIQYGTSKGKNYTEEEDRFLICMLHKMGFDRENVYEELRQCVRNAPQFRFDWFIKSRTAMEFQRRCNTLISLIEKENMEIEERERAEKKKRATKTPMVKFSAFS
UniProt Q6PFY1: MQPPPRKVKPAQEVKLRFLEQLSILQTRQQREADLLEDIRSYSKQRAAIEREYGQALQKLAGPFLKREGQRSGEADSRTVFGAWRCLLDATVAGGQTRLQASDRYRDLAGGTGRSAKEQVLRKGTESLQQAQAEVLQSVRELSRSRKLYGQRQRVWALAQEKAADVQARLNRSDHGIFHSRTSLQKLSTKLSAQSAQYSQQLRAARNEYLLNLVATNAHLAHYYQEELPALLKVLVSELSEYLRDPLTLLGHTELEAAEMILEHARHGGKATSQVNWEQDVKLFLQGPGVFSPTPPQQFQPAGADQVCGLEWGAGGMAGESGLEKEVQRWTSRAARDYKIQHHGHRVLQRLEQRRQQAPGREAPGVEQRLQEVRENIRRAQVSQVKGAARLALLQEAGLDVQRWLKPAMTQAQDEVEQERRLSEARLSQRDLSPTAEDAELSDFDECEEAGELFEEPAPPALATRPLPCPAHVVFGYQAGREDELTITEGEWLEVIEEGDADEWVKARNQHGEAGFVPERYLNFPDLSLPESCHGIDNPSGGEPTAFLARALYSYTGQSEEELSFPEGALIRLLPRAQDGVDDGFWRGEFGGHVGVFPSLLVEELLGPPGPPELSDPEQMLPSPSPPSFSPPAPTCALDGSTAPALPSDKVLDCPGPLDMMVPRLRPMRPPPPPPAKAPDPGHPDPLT
UniProt Q6NZQ6: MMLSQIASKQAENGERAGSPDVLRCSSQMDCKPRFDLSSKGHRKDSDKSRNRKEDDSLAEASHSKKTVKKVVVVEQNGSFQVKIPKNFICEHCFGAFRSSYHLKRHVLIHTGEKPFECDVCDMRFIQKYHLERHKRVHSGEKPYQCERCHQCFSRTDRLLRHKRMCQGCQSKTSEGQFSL
UniProt Q6P6J0: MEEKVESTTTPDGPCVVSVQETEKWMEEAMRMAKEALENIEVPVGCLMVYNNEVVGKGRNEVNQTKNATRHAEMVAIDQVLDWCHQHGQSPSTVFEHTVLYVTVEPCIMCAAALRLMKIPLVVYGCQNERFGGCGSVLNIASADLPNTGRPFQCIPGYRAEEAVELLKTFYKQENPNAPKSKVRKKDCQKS
UniProt Q69ZQ2: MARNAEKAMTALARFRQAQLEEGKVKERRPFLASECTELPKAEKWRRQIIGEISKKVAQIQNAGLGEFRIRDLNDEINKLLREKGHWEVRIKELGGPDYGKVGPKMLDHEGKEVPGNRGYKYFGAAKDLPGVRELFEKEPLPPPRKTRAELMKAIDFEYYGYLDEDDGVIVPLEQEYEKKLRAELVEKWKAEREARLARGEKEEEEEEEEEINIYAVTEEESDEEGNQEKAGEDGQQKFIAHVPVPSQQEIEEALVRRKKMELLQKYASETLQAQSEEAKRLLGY
UniProt Q6RI63: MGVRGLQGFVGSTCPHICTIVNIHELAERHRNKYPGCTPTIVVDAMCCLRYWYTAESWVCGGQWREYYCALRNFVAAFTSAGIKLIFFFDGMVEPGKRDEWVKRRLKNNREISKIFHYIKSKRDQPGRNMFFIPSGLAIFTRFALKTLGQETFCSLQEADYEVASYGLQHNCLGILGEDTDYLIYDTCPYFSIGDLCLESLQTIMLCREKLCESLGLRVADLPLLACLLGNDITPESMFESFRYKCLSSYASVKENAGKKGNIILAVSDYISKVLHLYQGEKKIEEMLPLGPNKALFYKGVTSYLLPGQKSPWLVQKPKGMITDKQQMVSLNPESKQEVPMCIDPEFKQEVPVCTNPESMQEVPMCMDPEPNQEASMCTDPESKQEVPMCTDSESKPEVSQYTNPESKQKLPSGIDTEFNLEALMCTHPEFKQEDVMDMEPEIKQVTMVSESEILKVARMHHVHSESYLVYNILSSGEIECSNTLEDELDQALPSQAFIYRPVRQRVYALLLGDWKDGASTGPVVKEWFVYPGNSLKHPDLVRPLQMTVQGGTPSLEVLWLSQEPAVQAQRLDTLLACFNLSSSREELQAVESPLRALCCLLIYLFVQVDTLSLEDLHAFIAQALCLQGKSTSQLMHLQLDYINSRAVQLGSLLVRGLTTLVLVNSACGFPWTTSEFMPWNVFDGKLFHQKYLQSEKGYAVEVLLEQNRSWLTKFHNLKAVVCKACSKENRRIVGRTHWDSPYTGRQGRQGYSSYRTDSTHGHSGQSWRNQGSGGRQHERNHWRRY
UniProt Q6PGG2: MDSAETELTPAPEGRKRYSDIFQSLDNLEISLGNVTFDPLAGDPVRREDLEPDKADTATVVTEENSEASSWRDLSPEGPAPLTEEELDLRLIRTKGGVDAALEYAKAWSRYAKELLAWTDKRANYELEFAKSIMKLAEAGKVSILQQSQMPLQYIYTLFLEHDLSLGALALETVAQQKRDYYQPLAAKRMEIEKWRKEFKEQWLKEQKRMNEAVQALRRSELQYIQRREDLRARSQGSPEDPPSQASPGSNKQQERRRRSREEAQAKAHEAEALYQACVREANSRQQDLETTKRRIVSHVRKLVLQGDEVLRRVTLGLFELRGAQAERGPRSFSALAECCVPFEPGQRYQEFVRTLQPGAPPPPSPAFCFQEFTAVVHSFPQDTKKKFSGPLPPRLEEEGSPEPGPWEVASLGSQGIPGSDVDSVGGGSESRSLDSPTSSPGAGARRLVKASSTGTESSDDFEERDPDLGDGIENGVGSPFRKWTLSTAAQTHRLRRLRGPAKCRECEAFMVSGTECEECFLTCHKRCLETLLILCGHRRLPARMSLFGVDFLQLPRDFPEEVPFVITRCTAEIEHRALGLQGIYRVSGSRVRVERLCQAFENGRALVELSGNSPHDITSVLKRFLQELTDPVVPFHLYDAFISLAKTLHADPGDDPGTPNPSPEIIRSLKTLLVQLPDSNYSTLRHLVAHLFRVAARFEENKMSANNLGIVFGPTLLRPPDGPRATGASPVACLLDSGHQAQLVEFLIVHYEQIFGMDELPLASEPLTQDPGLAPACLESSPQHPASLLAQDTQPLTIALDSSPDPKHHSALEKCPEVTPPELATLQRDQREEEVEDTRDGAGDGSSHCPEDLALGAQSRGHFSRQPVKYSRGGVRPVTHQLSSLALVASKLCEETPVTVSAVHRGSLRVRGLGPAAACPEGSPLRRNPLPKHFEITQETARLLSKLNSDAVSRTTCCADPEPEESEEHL
UniProt Q6P1E1: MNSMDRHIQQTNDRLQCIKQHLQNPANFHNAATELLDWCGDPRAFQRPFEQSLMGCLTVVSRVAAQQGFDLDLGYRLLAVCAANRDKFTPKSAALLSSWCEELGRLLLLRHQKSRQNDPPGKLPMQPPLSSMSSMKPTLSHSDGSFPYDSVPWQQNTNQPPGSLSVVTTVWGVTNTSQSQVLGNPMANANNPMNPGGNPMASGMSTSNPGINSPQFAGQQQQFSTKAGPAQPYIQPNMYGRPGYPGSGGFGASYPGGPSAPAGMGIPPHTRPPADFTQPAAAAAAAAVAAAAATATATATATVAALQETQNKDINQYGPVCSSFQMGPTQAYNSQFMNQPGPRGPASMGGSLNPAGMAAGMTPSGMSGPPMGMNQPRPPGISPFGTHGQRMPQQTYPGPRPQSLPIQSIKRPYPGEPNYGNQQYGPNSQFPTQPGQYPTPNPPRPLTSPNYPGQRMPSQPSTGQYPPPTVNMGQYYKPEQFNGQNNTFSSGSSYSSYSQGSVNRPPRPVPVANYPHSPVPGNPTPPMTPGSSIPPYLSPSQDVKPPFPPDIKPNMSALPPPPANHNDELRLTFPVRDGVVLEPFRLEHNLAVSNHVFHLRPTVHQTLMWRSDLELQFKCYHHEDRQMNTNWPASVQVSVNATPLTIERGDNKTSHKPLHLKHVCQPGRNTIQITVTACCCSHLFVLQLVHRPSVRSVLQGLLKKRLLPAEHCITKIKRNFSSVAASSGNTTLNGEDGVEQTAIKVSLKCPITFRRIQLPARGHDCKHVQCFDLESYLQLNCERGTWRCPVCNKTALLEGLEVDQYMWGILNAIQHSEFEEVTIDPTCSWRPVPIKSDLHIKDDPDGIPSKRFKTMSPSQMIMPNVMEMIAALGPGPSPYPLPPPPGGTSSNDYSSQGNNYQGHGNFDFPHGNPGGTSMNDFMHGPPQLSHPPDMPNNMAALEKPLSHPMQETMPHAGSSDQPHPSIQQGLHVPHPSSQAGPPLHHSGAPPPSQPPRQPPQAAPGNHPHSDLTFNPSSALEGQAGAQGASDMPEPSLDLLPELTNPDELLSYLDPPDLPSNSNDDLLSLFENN
UniProt Q6P539: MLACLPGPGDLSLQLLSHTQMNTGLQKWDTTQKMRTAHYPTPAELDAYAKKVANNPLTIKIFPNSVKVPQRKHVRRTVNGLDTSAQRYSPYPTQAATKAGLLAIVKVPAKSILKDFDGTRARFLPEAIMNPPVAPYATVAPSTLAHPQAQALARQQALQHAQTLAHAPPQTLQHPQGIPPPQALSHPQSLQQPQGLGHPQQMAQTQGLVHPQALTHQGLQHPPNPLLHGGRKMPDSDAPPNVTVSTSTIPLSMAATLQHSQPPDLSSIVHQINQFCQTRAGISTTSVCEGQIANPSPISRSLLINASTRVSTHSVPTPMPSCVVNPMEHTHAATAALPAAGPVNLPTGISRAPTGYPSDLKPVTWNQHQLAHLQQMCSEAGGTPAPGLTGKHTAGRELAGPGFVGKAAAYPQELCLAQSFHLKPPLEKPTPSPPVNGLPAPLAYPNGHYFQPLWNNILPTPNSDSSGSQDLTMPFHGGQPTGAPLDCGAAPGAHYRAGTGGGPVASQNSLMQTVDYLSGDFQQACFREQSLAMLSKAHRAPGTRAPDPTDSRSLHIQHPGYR
UniProt Q6KAR6: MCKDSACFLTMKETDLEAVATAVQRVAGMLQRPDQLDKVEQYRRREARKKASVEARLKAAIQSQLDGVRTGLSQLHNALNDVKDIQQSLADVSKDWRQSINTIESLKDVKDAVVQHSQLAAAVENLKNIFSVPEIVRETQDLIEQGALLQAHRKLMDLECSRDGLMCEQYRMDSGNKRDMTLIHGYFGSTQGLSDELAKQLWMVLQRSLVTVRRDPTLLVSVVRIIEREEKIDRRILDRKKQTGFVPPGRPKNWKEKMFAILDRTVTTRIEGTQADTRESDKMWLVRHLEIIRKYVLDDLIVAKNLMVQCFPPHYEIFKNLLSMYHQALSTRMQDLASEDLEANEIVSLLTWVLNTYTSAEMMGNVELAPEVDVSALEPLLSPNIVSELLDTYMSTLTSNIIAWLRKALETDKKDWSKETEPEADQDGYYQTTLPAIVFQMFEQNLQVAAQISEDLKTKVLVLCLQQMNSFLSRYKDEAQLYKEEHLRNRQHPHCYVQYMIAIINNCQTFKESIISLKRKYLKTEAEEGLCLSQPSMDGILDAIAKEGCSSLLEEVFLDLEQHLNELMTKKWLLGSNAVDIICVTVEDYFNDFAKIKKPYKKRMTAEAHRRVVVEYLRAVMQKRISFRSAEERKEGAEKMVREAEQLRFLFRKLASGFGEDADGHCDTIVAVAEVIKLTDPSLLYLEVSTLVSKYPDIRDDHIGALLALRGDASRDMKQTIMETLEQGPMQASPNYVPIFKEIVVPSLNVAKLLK

compound: CN[C@@H]1C[C@H]2O[C@@](C)([C@@H]1OC)n1c3ccccc3c3c4c(c5c6ccccc6n2c5c31)C(=O)NC4 [staurosporine]; assay: log2 fold change of tryptic peptide abundance, ligand vs vehicle (limited proteolysis) (log2 ratio); higher = more trypsin-susceptible (destabilized); settings: ligand concentration: 20 uM; sample: mouse liver crude lysate; replicate design: treated separately

Target | log2 fold change
UniProt Q6DFV7 (peptide sequence: YYSVDDNQNK, peptide start residue: 90) | -0.179
UniProt Q6PGB8 (peptide sequence: IMAQIER, peptide start residue: 899) | 0.25
UniProt Q6P9Z1 (peptide sequence: IHETIESINQLK, peptide start residue: 440) | -0.121
UniProt Q69ZX6 (peptide sequence: KPANPPIK, peptide start residue: 674) | -0.289
UniProt Q6DI86 (peptide sequence: HLEILGYR, peptide start residue: 788) | -0.208
UniProt Q6P542 (peptide sequence: LTPTNGEMR, peptide start residue: 667) | 0.104
UniProt Q6DID3 (peptide sequence: EGITRPPQVDVR, peptide start residue: 1023) | -0.285
UniProt Q6PB51 (peptide sequence: LAEDDECPVRK, peptide start residue: 73) | 0.303
UniProt Q6A070 (peptide sequence: TQSAHCYCGDHTR, peptide start residue: 618) | -0.524
UniProt Q6PFY1 (peptide sequence: EYGQALQK, peptide start residue: 52) | 0.147
UniProt Q6NZQ6 (peptide sequence: EDDSLAEASHSKK, peptide start residue: 54) | -0.415
UniProt Q6A026 (peptide sequence: SQDVDQLR, peptide start residue: 1017) | 0.195
UniProt Q6PA06 (peptide sequence: IYQGEELPHPK, peptide start residue: 362) | 0.286
UniProt Q6IR34 (peptide sequence: CPPPDVLPR, peptide start residue: 614) | 0.309
UniProt Q6NVF4 (peptide sequence: TSQFIAFR, peptide start residue: 721) | -0.618
UniProt Q6PNC0 (peptide sequence: GSEDFLVIHAR, peptide start residue: 2677) | 0.221

Target | log2 fold change
UniProt Q6NZR2 (peptide sequence: ALAELGYER, peptide start residue: 152) | -0.286
UniProt Q6P6J0 (peptide sequence: AEEAVELLK, peptide start residue: 160) | 0.0798
UniProt Q6PDM1 (peptide sequence: KLAPEFSK, peptide start residue: 348) | 0.448
UniProt Q6NS82 (peptide sequence: AEADALHHK, peptide start residue: 244) | 0.244
UniProt Q6NZE7 (peptide sequence: RIDFTPVSPAPSPTR, peptide start residue: 108) | -0.672
UniProt Q6AW69 (peptide sequence: DLQDQLSEMHDELDSTKR, peptide start residue: 698) | 0.685
UniProt Q69ZQ2 (peptide sequence: DLNDEINK, peptide start residue: 72) | -0.44
UniProt Q6PD10 (peptide sequence: GFRDDPTVHDGPDR, peptide start residue: 399) | -0.158
UniProt Q6RI63 (peptide sequence: THWDSPYTGR, peptide start residue: 737) | 0.493
UniProt Q6PGG2 (peptide sequence: SELQYIQR, peptide start residue: 220) | -0.288
UniProt Q6SKR2 (peptide sequence: GLFYLVTVK, peptide start residue: 167) | 0.18
UniProt Q6EJB6 (peptide sequence: EMKPLTNPDASGGKK, peptide start residue: 523) | -0.321
UniProt Q6P1E1 (peptide sequence: LLPAEHCITK, peptide start residue: 706) | 0.094
UniProt Q6P539 (peptide sequence: EQSLAMLSK, peptide start residue: 528) | 0.104
UniProt Q6KAR6 (peptide sequence: NLLSMYHQALSTR, peptide start residue: 320) | 0.22

Two entries picked at random from the list so far, as already listed:
Target | log2 fold change
UniProt Q6EJB6 (peptide sequence: EMKPLTNPDASGGKK, peptide start residue: 523) | -0.321
UniProt Q6NZR2 (peptide sequence: ALAELGYER, peptide start residue: 152) | -0.286
